Source: PubChem BioAssay AID652272 (Drosophila RNAi Screening Center, 2013)
Aim: 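Genes whose knock-down decreases or increases Hedgehog reporter output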 (primary screen). System: Drosophila clone 8 (Cl8) cells. Reagents: long dsRNA against Drosophila genes. Detection: 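Firefly light from a Hedgehog-responsive ptc promoter reporter and Renilla reference light, both read on a plate reader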. Scale: firefly Hh reporter signal: higher = more ptc reporter light; Renilla reference signal: higher = more Renilla control light. Active means: 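Hit when the z-score averaged over two replicates is under -2 or over +3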. Meaning of the calls: active = hit: reporter lowered or raised; inactive = not a hit.
The deposit covers about 21,000 reagents; shown is a random part of those with a known target gene and a result. Over the whole deposit, 503 (2.4%) were called active. 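Raw plate light values, not normalised; calls rest on replicate z-scores that were not deposited; hits include reporter decreases as well as increases.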 A number with no mark means an inactive call. Not given: the amount of reagent, the time to read-out.

target gene | DRSC id | firefly Hh reporter signal, replicate 1 | firefly Hh reporter signal, replicate 2 | firefly Hh reporter signal, replicate 3 | Renilla reference signal, replicate 1 | Renilla reference signal, replicate 2
slim | DRSC06921 | 1.09e5 | 79129 | – | 4294 | 3280
CG4789 | DRSC19918 | 81005 | 1.78e5 | – | 2681 | 6953
CG12682 | DRSC17873 | 62433 | 1.60e5 | – | 1616 | 6336
Gyc89Db | DRSC15009 | 1.13e5 | 1.25e5 | – | 3752 | 4268
HDAC1 | DRSC08696 | 94844 | 79161 | – | 3356 | 2258
Clp | DRSC00746 | 86387 | 91619 | – | 2329 | 2149
sff | DRSC10590 | 71865 | 46413 | – | 3147 | 1431
TwdlN | DRSC15813 | 76211 | 52624 | – | 1648 | 1636
CG9853 | DRSC12343 | 1.36e5 | 7.27e5 | 95101 | 5962 | 40637
CG4036 | DRSC02735 | 89732 | 62459 | – | 3602 | 2745
CG6209 | DRSC06968 | 93737 | 46109 | – | 2195 | 4115
CG3792 | DRSC02725 | 1.26e5 | 42909 | – | 3272 | 4539
PDCD-5 | DRSC09955 | 1.51e5 | – | – | 6384 | 4486
CG8736 | DRSC07255 | 1.47e5 | 65965 | – | 3624 | 6400
Rab9Fb | DRSC19854 | 85111 | 2.89e5 | – | 2736 | 10640
Dbx | DRSC08270 | 84708 | 40819 | – | 2848 | 3436
Dbx | DRSC08271 | 80075 | 61413 | – | 2954 | 3797
Dbx | DRSC08394 | 86266 | 45462 | – | 2778 | 3288
CG17486 | DRSC07752 | 1.08e5 | 76681 | – | 5557 | 3750
Uba3 | DRSC06377 | 71591 | 75734 | – | 3760 | 3155
CG18234 | DRSC10309 | 1.53e5 | – | – | 3308 | 4100
CG18327 | DRSC06722 | 96705 | 36049 | – | 2427 | 276
B-H1 | DRSC19334 | 1.08e5 | 3.81e5 | 1.78e5 | 3360 | 3952

2 neighbouring entries from above:
target gene | DRSC id | firefly Hh reporter signal, replicate 1 | firefly Hh reporter signal, replicate 2 | firefly Hh reporter signal, replicate 3 | Renilla reference signal, replicate 1 | Renilla reference signal, replicate 2
Dbx | DRSC08271 | 80075 | 61413 | – | 2954 | 3797
Dbx | DRSC08394 | 86266 | 45462 | – | 2778 | 3288
